Assay results from PMC10042999.
These are yes or no findings as the source states them, for the method shown. Binding seen in cells or lysates may run through a third protein. Binding calls can cover weak binding; strength is not graded here.

Protein sequences, listed by entry. Tags and fused reporters are not part of them. Lines headed by an entry give the natural chain unless they say otherwise; changes in a name come on top. Chains listed by the source or under a name are the forms on record and can include a tag or linker. Residues count along the entry.
UniProt Q60932: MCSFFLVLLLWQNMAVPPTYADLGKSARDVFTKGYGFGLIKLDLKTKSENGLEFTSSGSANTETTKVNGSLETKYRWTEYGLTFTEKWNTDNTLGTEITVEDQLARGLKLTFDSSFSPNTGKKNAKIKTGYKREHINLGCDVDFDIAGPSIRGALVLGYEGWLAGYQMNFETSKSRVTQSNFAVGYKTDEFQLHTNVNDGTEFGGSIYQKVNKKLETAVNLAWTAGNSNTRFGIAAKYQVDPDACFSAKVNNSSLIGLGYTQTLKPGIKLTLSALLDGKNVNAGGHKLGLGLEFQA
UniProt P38647, residues 47-679: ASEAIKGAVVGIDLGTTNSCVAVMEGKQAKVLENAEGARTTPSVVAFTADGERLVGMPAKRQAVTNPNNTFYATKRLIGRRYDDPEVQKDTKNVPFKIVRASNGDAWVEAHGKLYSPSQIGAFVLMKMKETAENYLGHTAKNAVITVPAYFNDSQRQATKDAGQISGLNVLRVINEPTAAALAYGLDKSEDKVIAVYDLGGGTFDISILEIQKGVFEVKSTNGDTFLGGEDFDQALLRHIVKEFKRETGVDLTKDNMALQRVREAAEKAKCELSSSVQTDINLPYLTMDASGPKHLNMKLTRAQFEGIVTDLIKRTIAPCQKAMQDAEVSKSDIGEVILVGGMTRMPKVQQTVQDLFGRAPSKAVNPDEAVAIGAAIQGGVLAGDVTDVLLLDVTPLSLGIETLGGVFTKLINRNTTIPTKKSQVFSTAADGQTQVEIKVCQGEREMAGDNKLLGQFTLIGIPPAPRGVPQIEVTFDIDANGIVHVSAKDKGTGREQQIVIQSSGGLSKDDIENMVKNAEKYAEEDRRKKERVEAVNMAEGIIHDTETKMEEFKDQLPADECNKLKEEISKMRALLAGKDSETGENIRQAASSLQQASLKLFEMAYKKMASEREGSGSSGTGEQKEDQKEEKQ
Human GRP75 with c-term hemagglutinin (HA) tag, wild type (P38646, residues 47-679): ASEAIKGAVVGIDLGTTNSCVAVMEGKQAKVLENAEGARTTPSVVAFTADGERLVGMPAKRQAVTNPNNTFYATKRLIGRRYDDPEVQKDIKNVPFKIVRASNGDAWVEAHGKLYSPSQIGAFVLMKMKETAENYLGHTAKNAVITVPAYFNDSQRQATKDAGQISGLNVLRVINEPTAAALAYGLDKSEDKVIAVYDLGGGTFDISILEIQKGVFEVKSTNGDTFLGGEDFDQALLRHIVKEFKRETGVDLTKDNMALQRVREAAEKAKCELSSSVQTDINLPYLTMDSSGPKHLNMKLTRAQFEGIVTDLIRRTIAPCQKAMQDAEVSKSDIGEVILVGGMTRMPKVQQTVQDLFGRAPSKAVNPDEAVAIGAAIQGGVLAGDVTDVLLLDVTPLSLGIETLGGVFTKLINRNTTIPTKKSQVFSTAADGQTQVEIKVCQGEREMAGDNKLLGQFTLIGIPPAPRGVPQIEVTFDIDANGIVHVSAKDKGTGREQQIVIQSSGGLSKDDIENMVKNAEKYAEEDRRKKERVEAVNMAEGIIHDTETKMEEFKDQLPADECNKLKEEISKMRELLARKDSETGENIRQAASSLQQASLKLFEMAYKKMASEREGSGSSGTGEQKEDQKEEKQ
Human GRP75 with c-term HA tag, non-phosphorylatable mutant S266-A (P38646, form named): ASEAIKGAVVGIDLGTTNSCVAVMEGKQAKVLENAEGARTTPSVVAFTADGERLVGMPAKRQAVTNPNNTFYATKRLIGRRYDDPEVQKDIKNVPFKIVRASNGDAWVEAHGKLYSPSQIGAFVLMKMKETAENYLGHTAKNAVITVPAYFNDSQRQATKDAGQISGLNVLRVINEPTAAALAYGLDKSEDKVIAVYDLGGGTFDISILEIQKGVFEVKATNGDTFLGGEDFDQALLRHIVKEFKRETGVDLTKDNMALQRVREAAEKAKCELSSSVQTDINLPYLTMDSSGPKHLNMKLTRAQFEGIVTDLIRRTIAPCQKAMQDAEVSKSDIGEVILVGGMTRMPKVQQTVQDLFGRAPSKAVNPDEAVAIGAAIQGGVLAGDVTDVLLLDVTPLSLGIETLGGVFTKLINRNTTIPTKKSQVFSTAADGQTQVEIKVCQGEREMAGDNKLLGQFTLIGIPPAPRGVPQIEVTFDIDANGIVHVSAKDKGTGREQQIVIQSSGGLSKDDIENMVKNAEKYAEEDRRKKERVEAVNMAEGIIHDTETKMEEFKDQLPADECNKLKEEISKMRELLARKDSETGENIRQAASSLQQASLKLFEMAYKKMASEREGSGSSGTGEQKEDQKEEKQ
Human GRP75 with c-term HA tag, non-phosphorylatable mutant T120-A (P38646, form named): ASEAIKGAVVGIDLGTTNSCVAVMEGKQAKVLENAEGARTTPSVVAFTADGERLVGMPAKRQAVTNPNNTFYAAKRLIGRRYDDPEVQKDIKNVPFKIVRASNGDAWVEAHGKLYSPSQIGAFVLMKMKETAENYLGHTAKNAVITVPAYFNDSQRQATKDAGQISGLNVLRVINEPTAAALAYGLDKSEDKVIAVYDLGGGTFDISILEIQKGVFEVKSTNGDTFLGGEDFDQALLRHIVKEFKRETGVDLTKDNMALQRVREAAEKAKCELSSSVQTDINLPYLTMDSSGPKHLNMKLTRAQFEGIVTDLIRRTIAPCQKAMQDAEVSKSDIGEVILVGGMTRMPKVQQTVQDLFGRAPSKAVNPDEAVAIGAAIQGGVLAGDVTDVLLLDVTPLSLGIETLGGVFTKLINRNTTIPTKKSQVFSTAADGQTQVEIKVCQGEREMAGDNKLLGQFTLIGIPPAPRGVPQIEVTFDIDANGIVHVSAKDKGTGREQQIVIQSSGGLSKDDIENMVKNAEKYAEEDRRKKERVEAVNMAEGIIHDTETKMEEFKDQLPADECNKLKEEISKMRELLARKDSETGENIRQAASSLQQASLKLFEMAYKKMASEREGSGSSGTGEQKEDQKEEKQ
Human GRP75 with c-term HA tag, non-phosphorylatable mutant T267-A (P38646, form named): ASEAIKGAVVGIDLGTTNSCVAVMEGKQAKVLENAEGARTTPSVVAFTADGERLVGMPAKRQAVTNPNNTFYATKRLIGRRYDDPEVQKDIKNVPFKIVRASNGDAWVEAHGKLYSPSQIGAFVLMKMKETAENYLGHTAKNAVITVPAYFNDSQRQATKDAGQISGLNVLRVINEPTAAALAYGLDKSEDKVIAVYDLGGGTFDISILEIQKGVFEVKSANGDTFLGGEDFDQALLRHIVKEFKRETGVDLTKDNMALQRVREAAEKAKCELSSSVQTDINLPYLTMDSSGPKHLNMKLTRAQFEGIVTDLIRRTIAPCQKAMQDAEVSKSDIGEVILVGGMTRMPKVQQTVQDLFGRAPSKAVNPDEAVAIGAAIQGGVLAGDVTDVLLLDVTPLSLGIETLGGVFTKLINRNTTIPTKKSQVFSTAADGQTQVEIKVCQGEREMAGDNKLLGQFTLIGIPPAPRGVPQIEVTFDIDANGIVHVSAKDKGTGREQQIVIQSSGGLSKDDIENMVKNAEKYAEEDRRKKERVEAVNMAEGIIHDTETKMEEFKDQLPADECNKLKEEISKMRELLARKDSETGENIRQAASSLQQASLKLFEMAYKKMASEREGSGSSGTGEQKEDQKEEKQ
UniProt P11881: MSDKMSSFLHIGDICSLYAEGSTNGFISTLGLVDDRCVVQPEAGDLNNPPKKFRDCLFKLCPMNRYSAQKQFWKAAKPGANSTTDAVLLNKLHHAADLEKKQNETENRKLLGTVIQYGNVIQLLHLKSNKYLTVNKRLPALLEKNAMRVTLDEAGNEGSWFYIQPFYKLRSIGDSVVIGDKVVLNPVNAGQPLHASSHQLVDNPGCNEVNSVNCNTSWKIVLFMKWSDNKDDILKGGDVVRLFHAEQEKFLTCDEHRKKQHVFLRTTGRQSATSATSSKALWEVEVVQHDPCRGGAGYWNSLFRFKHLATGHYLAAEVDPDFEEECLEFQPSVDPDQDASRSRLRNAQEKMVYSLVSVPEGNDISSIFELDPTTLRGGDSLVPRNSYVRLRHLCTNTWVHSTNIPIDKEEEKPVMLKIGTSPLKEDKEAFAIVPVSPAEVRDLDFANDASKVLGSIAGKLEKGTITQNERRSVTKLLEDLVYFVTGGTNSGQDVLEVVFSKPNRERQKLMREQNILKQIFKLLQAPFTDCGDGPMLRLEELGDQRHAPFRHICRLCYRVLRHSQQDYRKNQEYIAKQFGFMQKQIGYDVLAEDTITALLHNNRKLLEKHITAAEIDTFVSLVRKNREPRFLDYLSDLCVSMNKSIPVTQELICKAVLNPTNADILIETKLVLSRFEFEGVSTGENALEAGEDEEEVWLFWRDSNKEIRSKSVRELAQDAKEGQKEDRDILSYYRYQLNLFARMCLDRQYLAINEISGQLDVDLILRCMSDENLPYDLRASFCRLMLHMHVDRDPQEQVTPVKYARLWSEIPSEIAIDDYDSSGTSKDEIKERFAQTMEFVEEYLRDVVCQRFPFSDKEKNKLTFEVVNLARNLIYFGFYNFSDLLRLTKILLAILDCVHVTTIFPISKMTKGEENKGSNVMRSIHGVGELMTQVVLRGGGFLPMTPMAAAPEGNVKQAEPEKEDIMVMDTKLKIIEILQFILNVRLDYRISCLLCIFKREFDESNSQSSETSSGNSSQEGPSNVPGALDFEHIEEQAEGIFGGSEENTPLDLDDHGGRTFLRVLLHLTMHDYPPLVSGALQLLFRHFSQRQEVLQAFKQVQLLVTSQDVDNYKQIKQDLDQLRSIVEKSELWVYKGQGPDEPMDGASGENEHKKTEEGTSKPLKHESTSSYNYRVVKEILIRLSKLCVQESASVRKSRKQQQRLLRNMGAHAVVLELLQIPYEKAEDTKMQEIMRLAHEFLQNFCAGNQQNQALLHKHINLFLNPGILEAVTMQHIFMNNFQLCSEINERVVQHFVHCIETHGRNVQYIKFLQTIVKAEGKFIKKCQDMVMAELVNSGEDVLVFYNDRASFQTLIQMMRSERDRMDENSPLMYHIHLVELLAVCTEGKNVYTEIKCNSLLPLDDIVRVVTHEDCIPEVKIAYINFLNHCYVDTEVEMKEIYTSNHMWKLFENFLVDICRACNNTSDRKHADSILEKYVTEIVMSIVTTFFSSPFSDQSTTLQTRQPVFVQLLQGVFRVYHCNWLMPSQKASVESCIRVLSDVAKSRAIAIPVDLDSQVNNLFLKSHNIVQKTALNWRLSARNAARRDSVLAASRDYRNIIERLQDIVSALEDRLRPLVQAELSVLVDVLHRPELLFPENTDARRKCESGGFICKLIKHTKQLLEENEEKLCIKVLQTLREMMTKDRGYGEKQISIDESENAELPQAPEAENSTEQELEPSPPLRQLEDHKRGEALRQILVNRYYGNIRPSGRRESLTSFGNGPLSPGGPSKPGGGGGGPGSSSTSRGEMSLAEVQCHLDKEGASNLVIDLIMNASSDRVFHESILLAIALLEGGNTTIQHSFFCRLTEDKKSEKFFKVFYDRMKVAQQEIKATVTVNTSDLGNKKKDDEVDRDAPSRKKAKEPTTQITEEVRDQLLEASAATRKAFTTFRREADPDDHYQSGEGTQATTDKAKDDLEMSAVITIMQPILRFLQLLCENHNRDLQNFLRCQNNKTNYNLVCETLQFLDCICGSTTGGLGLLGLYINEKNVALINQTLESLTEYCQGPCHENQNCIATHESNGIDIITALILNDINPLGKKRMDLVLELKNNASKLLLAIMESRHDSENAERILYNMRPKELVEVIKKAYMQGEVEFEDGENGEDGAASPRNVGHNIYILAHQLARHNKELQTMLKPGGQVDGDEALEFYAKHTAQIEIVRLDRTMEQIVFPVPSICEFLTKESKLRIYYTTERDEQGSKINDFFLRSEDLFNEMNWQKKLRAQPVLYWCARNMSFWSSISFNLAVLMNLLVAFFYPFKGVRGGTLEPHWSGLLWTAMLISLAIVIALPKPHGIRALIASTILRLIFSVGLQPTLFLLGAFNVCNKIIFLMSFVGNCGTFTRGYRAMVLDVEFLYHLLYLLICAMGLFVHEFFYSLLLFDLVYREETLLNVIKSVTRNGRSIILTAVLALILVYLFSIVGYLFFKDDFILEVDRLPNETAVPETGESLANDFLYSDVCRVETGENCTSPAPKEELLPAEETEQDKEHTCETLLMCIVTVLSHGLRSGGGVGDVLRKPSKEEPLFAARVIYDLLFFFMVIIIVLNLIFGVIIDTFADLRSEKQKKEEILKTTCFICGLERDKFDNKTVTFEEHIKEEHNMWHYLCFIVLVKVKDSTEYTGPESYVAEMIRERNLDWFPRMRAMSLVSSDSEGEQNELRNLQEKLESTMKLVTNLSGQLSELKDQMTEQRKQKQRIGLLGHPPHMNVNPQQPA

Key:
[1] = target: voltage-dependent anion channel 1 (VDAC1), endogenous mouse (mouse (endogenous in mouse liver, primary mouse hepatocytes and AML12 cells)) (UniProt Q60932); assay: proximity ligation; in situ PLA (Duolink) on fixed, permeabilised AML12 cells; endogenous proteins, PDK4-FLAG (FLAG antibody) or HA-tagged GRP75 WT/mutants (HA antibody) co-overexpressed with PDK4-FLAG; with or without 100 mM EtOH for 24 h
[2] = target: voltage-dependent anion channel 1 (VDAC1), endogenous mouse (mouse (endogenous in mouse liver, primary mouse hepatocytes and AML12 cells)) (UniProt Q60932); assay: proximity ligation; in situ PLA (Duolink) on fixed, permeabilised primary mouse hepatocytes (Pdk4+/+ and Pdk4-/-), with or without 100 mM EtOH for 24 h; endogenous proteins
[3] = target: glucose-regulated protein 75 (GRP75), endogenous mouse (mouse (endogenous in mouse liver, primary mouse hepatocytes and AML12 cells)) (UniProt P38647); assay: proximity ligation; in situ PLA (Duolink) on fixed, permeabilised AML12 cells; endogenous proteins, PDK4-FLAG (FLAG antibody) or HA-tagged GRP75 WT/mutants (HA antibody) co-overexpressed with PDK4-FLAG; with or without 100 mM EtOH for 24 h
[4] = target: glucose-regulated protein 75 (GRP75), endogenous mouse (mouse (endogenous in mouse liver, primary mouse hepatocytes and AML12 cells)) (UniProt P38647); assay: co-IP; IP with GRP75 antibody from liver lysates of control diet (CD) and EtOH diet (ED)-fed mice; lysis buffer 50 mM Tris, 150 mM NaCl, 1% Triton X-100, 1 mM EDTA, 10% glycerol; A/G plus agarose beads overnight at 4 °C; immunoblotting
[5] = target: glucose-regulated protein 75 (GRP75), endogenous mouse (mouse (endogenous in mouse liver, primary mouse hepatocytes and AML12 cells)) (UniProt P38647); assay: proximity ligation; in situ PLA (Duolink) on fixed, permeabilised primary mouse hepatocytes (Pdk4+/+ and Pdk4-/-), with or without 100 mM EtOH for 24 h; endogenous proteins
[6] = target: Human GRP75 with c-term HA tag, non-phosphorylatable mutant S266-A (human) (UniProt P38646); assay: co-IP; IP with HA antibody from AML12 cells overexpressing HA-tagged WT or phospho-mutant GRP75, either co-overexpressing PDK4-FLAG (Fig. 3g) or treated with 100 mM EtOH for 24 h (Fig. 4a); immunoblotting of endogenous IP3R1 and VDAC1
[7] = target: Human GRP75 with c-term HA tag, non-phosphorylatable mutant T120-A (human) (UniProt P38646); assay: as above
[8] = target: Human GRP75 with c-term HA tag, non-phosphorylatable mutant T267-A (human) (UniProt P38646); assay: as above
[9] = target: Human GRP75 with c-term hemagglutinin (HA) tag, wild type (human) (UniProt P38646); assay: as above

Measured: binding

inositol-1-tri-phosphate receptor 1 (IP3R1), endogenous mouse (from UniProt P11881 1-2749)
binds: [1] | [2]

voltage-dependent anion channel 1 (VDAC1), endogenous mouse (from UniProt Q60932)
not listed: [1] | [2]
binds: all other assays above
